Reference: patent publication US20110229560A1
These are yes or no findings as the source states them, for the method shown. For part of these data: In cells and extracts the contact can be indirect. Some results given as binding are weak or reduced against the parent protein; the word gives no strength. Where a sequence is shown, tags or fusion partners need not be part of it.

T1: IKKβ-KD (amino-terminal kinase domain construct of IKKβ, Flag-tagged) (UniProt O14920)
T1 sequence (looked up): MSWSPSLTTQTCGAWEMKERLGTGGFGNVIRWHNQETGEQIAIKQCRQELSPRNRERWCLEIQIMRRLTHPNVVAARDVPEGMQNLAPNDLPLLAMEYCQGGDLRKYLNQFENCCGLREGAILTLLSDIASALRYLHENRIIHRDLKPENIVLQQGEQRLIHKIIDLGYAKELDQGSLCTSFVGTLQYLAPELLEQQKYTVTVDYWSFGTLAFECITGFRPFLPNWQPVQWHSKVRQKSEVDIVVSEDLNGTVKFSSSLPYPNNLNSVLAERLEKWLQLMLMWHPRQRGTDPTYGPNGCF

T2: Flag-tagged IKKβ (full length) (UniProt O14920)
T2 sequence (looked up): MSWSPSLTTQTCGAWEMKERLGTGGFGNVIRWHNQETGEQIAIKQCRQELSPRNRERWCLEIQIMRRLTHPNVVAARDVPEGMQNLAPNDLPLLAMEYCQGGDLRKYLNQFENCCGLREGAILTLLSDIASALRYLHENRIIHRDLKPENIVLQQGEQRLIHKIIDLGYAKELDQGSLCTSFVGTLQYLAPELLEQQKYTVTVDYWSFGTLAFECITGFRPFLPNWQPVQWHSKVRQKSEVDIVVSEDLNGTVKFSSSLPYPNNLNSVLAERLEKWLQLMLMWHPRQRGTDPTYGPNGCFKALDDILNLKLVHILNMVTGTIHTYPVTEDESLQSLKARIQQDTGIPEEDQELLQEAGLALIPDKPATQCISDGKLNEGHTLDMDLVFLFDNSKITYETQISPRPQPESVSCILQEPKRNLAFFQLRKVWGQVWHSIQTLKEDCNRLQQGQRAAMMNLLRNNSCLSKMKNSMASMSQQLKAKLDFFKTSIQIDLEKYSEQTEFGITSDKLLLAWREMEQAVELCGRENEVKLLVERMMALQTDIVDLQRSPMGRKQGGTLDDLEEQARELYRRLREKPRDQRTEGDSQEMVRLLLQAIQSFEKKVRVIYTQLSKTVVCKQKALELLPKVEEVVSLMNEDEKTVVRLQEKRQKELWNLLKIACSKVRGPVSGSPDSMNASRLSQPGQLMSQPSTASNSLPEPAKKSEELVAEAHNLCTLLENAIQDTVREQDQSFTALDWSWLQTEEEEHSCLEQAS


How the values were obtained:
[1] = target: T1, IKKβ-KD (amino-terminal kinase domain construct of IKKβ, Flag-tagged); assay: restatement of the deletion co-IP results
[2] = target: T1, IKKβ-KD (amino-terminal kinase domain construct of IKKβ, Flag-tagged); assay: immunoprecipitation and Western blot, transfected 293T cells
[3] = target: T2, Flag-tagged IKKβ (full length); assay: as above

Binder	binding [1]	binding [2]	binding [3]
NLRC5-D1, containing the CARD and NOD domains (aa 1-517) (protein, not shown: small tags and cut ends) MDPVGLQLGNKNLWSCLVRLLTKDPEWLNAKMKFFLPNTDLDSRNETLDPEQRVILQLNKLHVQGSDTWQSFIHCVCMQLEVPLDLEVLLLSTFGYDDGFTSQLGAEGKSQPESQLHHGLKRPHQSCGSSPRRKQCKKQQLELAKKYLQLLRTSAQQRYRSQIPGSGQPHAFHQVYVPPILRRATASLDTPEGAIMGDVKVEDGADVSISDLFNTRVNKGPRVTVLLGKAGMGKTTLAHRLCQKWAEGHLNCFQALFLFEFRQLNLITRFLTPSELLFDLYLSPESDHDTVFQYLEKNADQVLLIFDGLDEALQPMGPDGPGPVLTLFSHLCNGTLLPGCRVMATSRPGKLPACLPAEAAMVHMLGFDGPRVEEYVNHFFSAQPSREGALVELQTNGRLRSLCAVPALCQVACLCLHHLLPDHAPGQSVALLPNMTQLYMQMVLALSPPGHLPTSSLLDLGEVALRGLETGKVIFYAKDIAPPLIAFGATHSLLTSFCVCTGPGHQQTGYAFTHLSL	binds	binds	binds
NLRC5-D2, containing the LRR-R1 (aa 651-898) (protein, not shown: small tags and cut ends) LATLTNILEHREAPIHLDFDGCPLEPHCPEALVGCGQIENLSFKSRKCGDAFAEALSRSLPTMGRLQMLGLAGSKITARGISHLVKALPLCPQLKEVSFRDNQLSDQVVLNIVEVLPHLPRLRKLDLSSNSICVSTLLCLARVAVTCPTVRMLQAREADLIFLLSPPTETTAELQRAPDLQESDGQRKGAQSRSLTLRLQKCQLQVHDAEALIALLQEGPHLEEVDLSGNQLEDEGCRLMAEAASQLH	binds	binds	binds

The remaining lines, values ahead:

binding [1]	binding [2]	binding [3]	Binder
binds	binds	binds	NLRC5-D3, containing the link region and LRR-R2 (aa 900-1329) (protein, not shown: small tags and cut ends) ARKLDLSDNGLSVAGVHCVLRAVSACWTLAELHISLQHKTVIFMFAQEPEEQKGPQERAAFLDSLMLQMPSELPLSSRRMRLTHCGLQEKHLEQLCKALGGSCHLGHLHLDFSGNALGDEGAARLAQLLPGLGALQSLNLSENGLSLDAVLGLVRCFSTLQWLFRLDISFESQHILLRGDKTSRDMWATGSLPDFPAAAKFLGFRQRCIPRSLCLSECPLEPPSLTRLCATLKDCPGPLELQLSCEFLSDQSLETLLDCLPQLPQLSLLQLSQTGLSPKSPFLLANTLSLCPRVKKVDLRSLHHATLHFRSNEEEEGVCCGRFTGCSLSQEHVESLCWLLSKCKDLSQVDLSANLLGDSGLRCLLECLPQVPISGLLDLSHNSISQESALYLLETLPSCPRVREASVNLGSEQSFRIHFSREDQAGKTLR
binds	binds	binds	NLRC5-D4, containing the CARD domain and LRR-R3 (aa 1-215 plus 1471-1866) (protein, not shown: small tags and cut ends) MDPVGLQLGNKNLWSCLVRLLTKDPEWLNAKMKFFLPNTDLDSRNETLDPEQRVILQLNKLHVQGSDTWQSFIHCVCMQLEVPLDLEVLLLSTFGYDDGFTSQLGAEGKSQPESQLHHGLKRPHQSCGSSPRRKQCKKQQLELAKKYLQLLRTSAQQRYRSQIPGSGQPHAFHQVYVPPILRRATASLDTPEGAIMGDVKVEDGADVSISDLFNTSQVNLCEDDDASSLLLQSLLLSLSELKTFRLTSSCVSTEGLAHLASGLGHCHHLEELDLSNNQFDEEGTKALMRALEGKWMLKRLDLSHLLLNSSTLALLTHRLSQMTCLQSLRLNRNSIGDVGCCHLSEALRAATSLEELDLSHNQIGDAGVQHLATILPGLPELRKIDLSGNSISSAGGVQLAESLVLCRRLEELMLGCNALGDPTALGLAQELPQHLRVLHLPFSHLGPGGALSLAQALDGSPHLEEISLAENNLAGGVLRFCMELPLLRQIDLVSCKIDNQTAKLLTSSFTSCPALEVILLSWNLLGDEAAAELAQVLPQMGRLKRVDLEKNQITALGAWLLAEGLAQGSSIQVIRLWNNPIPCDMAQHLKSQEPRLDFAFFDNQPQAPWGT
